Where “and” joins values, the source holds several entries; their conditions need not be identical. Identical values can stand only once. Some of the results follow. Further columns of the screen follow, without active or inactive calls. Compounds called inactive in the main read-out are mostly missing here. Potencies come from curve fits of mixed quality, noted in brackets.

AC50 data for 53 compounds are collected here from PubChem BioAssay AID1487 (National Center for Advancing Translational Sciences (NCATS), 2009).

This experiment can be described thus: qHTS Assay for Modulators of Lamin A Splicing. The note with it: HeLa LMNA splicing GFP/RFP minigene ratio, 48 h. The method, boiled down: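 Read-out is the ratio of GFP to DsRed2 object intensity, acquired by 488 nm laser-scanning cytometry on HeLa lamin A-EGFP minigene reporter cells. Compound incubation 48 hrs at 37 °C in Opti-MEM with 2% FBS; DMSO 0.5% final.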

[1] abbreviates: measured here: RFP viability control channel.
Setting [2] is: measured here: GFP splicing reporter channel.

With `Cc1cc(C)cc(NC(=S)/N=C(\N)Nc2nc(C)c3ccccc3n2)c1`, under setting [1], the AC50 is 35.5 µM [rising, single point]. With `CCOC(=O)C1CCN(C(c2ccc(SC)cc2)c2c(O)cc(C)n(Cc3ccco3)c2=O)CC1` (centres undefined), under setting [2], the AC50 was 3.98 µM [falling, full curve, poor fit]. The same measure, in the same setting: next, `COc1ccc(/C=C/c2nnc(NC(=O)c3ccco3)s2)cc1`: 0.0447 µM [falling, full curve, poor fit]. In the case of `Nc1cc(-c2cccc(Br)c2)nn1Cc1ccccc1`, the AC50 by setting is: under setting [2], 2.82 µM [rising, full curve, poor fit]; under setting [1], 11.2 µM [rising, partial curve]. Take `COc1ccc(CNC(=O)c2cccc(NC(=O)c3ccccc3)c2)cc1`: the AC50 reads like this: under setting [2], 7.94 µM [falling, partial curve]; under setting [1], 2.82 µM [falling, full curve, poor fit]. As to `COc1cc2c(cc1C1NC(=S)NC(C)=C1C(=O)N(C)C)CCCC2` (centres undefined), the AC50 is, setting by setting: under setting [2], 12.6 µM [rising, single point]; under setting [1], 15.8 µM [rising, partial curve, poor fit]. Turning to `COc1ccc2[nH]c(=O)c(CN(Cc3cccs3)S(=O)(=O)c3c(C)ccc4nsnc34)cc2c1`, under setting [1], the AC50 was 2.82 µM [rising, full curve]. Still for that read-out and setting: next, `COc1ccc(OC)c(NCc2cccn2-c2nnc(N3CCCCC3)s2)c1`: 31.6 µM [rising, single point]; `Cc1ccc(C)c(S(=O)(=O)c2cn(C)c3cc(N4CCCCC4C)c(F)cc3c2=O)c1` (centres undefined): 1.12 µM [rising, full curve]; `CCN(CC)S(=O)(=O)c1cc(NS(=O)(=O)c2cc(Cl)ccc2Cl)ccc1C`: 22.4 µM [rising, single point].

On to `CCOC(=O)C(=O)N1CCN(c2ccccc2OC)CC1`, for which the AC50 under setting [2] was 6.31 µM [rising, partial curve, poor fit]. As for `Cn1c(=O)c2c(nc(Br)n2CC(=O)C23CC4CC(CC(C4)C2)C3)n(C)c1=O`, the AC50 under setting [1] is 31.6 µM [rising, single point]. As to `CC(C)(Oc1ccc(CCNC(=O)c2ccc(Cl)cc2)cc1)C(=O)O`, the AC50 under setting [2] was 0.000355 µM [rising, full curve, poor fit]. Take `c1ccc(CC2=NCCN2)cc1`: the AC50 under setting [1] was 0.178 µM [falling, partial curve]. Regarding `c1ccc(-c2cn3c(n2)-c2ccccc2C3)cc1`, the half-maximal activity concentration (AC50) under setting [1] is 1.58 µM [rising, full curve, poor fit].

With `COc1cc2c(C(=O)O)c(C)n(CC(C)C)c2c2ccccc12`, the AC50 under setting [1] is 17.8 µM [rising, single point]. For `CC(=O)OC1CC2C(C)(C)C(O)CC[C@@]2(C)C2CC[C@@]3(C)C(c4ccoc4)OC(=O)C4OC43[C@]12C` (some centres undefined), the AC50 is, setting by setting: under setting [2], 15.8 µM [falling, single point]; under setting [1], 15.8 µM [falling, single point]. On to `Clc1ccc(OCCSCc2nc3ccccc3[nH]2)cc1`, for which the AC50 runs as follows: under setting [2], 22.4 µM [rising, single point]; under setting [1], 22.4 µM [rising, partial curve]. `COc1ccc(-n2c(SCC(=O)NC3CCCCC3)nc3ccsc3c2=O)cc1`: under setting [1], the AC50 was 1.41 µM [falling, partial curve, poor fit]. In the case of `CCOc1ccc2ncc(S(=O)(=O)c3ccccc3)c(N3CCN(c4ccc(OC)cc4)CC3)c2c1`, the AC50 by setting is: under setting [2], 8.91 µM [rising, partial curve]; under setting [1], 14.1 µM [rising, partial curve]. Turning to `Cc1cc2oc(=O)cc(CN3CCN(C/C=C/c4ccccc4)CC3)c2cc1O`, the AC50 was 7.94 µM [rising, partial curve, poor fit] under setting [2] and 17.8 µM [rising, single point] under setting [1]. Regarding `CS(=O)(=O)N(CC(=O)N1CCN(c2cccc(Cl)c2)CC1)c1cccc(F)c1`, the AC50 under setting [1] was 15.8 µM [rising, single point]. In the case of `CCc1ccc(CN(C)C(=O)CCc2nnc(CCc3cccc(OC)c3)o2)nc1`, the AC50 under setting [1] is 7.94 µM [falling, full curve, poor fit]. On to `CC(=O)OCC1OC(n2cnc3c(Cl)nc(Cl)nc32)C(OC(C)=O)C1OC(C)=O` (centres undefined), for which the AC50 was 17.8 µM [falling, partial curve] under setting [2] and 25.1 µM [falling, single point] under setting [1].

Consider `Cc1cccc(Nc2nc(-c3cccs3)cs2)n1`, for which, under setting [1], the AC50 is 15.8 µM [rising, single point]. For `CCOC(=O)C1(CC2CCCCO2)CCN(C(=O)Nc2ccccc2CC)CC1` (centres undefined), the AC50 under setting [2] is 0.282 µM [rising, partial curve]. Take `Cc1ccc2sc(N3CCN(C(=O)CCS(=O)(=O)c4ccc(Cl)cc4)CC3)nc2c1C`: under setting [1], the AC50 is 0.0141 µM [rising, partial curve, poor fit]. In the case of `O=C(NCCc1ccc(F)cc1)C(=O)NCC(c1cccs1)S(=O)(=O)c1ccc(F)cc1` (centres undefined), the AC50 was 11.2 µM [falling, partial curve] under setting [2] and 7.08 µM [falling, full curve] under setting [1]. Regarding `Nc1cc(-c2ccccc2)nn1S(=O)(=O)c1ccc(F)cc1`, the AC50 under setting [1] is 14.1 µM [rising, partial curve]. For the compound `Cc1cccc(NC(=S)NNC(=O)c2cc3c(s2)CCC(C)C3)c1C` (centres undefined), the AC50 under setting [2] is 15.8 µM [rising, single point] and the AC50 under setting [1] was 17.8 µM [rising, single point]. For the compound `Cc1ccnc(N2CCC(C(=O)Nc3ccc4c(c3)CCC4)CC2)n1`, the AC50 is 1.26 µM [rising, partial curve] under setting [2] and 22.4 µM [rising, single point] under setting [1]. In the case of `CCCN(CCC)C(=O)Cn1c(=O)n(-c2cccc(OC)c2)c(=O)c2c(C)c(C(=O)N(C)C)sc21`, under setting [1], the AC50 was 0.0224 µM [rising, full curve, poor fit]. As to `COc1ccc2nc(N3C(=O)/C(=C/c4ccccc4)NC3=S)sc2c1`, the AC50 reads like this: under setting [2], 7.94 µM [rising, partial curve]; under setting [1], 7.08 µM [rising, partial curve].

As to `Cc1nc2ccccn2c1/C(O)=C1\C(=O)C(=O)N(CCN(C)C)C1c1cccnc1` (centres undefined), the AC50 under setting [1] was 1.12 µM [rising, full curve, poor fit]. Still for that read-out and setting: next, `Cc1ccc(C)c(NC(=O)Cn2nnc(C(=O)NCc3ccccc3Cl)c2N)c1`: 35.5 µM [falling, single point]; `CC1CN(S(=O)(=O)c2ccc(C(=O)Nc3nnc(-c4ccc5c(c4)CCCC5)o3)cc2)CC(C)O1` (centres undefined): 4.47 µM [rising, partial curve]. For `O=C(Cn1c(=O)nc(-c2ccccc2)c2ccccc21)NCCc1ccc(Cl)cc1`, the half-maximal activity concentration (AC50) under setting [2] is 7.08 µM [falling, partial curve, poor fit].

Take `CC1(C)C=Cc2c(c3c(c4c(=O)c(-c5ccc(O)cc5)coc24)OC(C)(C)CC3)O1`: the AC50 is 35.5 µM [falling, single point] under setting [2] and 28.2 µM [falling, single point] under setting [1]. Consider `COc1cccc(N2C(=O)C(CC(=O)Nc3ccccc3)N(C3CCCCC3)C2=O)c1` (centres undefined), for which the AC50 under setting [2] is 0.398 µM [rising, full curve, poor fit]. As to `Brc1ccc(-c2csc(/N=C/N3CCOCC3)n2)cc1`, the AC50 under setting [1] is 15.8 µM [rising, single point]. Take `Cc1ccc(S(=O)(=O)Nc2cc(=O)[nH]c(SCc3ccccc3Cl)n2)cc1`: the AC50 is, setting by setting: under setting [2], 31.6 µM [rising, single point]; under setting [1], 35.5 µM [rising, single point]. With `CC(C)(C)n1nnnc1C(c1ccccn1)N(Cc1ccccc1)Cc1ccc(Cl)cc1` (centres undefined), the AC50 under setting [1] is 31.6 µM [rising, single point].

Regarding `CSc1ccccc1NC(=O)Nc1ccc(Cl)cc1`, the AC50 by setting is: under setting [2], 25.1 µM [rising, single point]; under setting [1], 20 µM [rising, single point]. As to `CN(Cc1ccccc1)S(=O)(=O)c1ccc(Cl)c(C(=O)NCCc2ccccn2)c1`, the AC50 reads like this: under setting [2], 25.1 µM [falling, single point]; under setting [1], 0.0178 µM [falling, full curve, poor fit].

Regarding `CCCCN(CC)CCNC(=O)CCn1cnc2onc(-c3ccc(F)cc3)c2c1=O`, the AC50 is 6.31 µM [falling, partial curve, poor fit] under setting [2] and 2.24 µM [falling, full curve, poor fit] under setting [1]. For `Cc1cccc(-n2cc(-c3ccccc3)c3c(N4CCC(C)CC4)ncnc32)c1`, the AC50 under setting [1] was 35.5 µM [rising, single point]. On the same count and under the same terms, as for `Cc1c(Br)c([N+](=O)[O-])nn1CC(=O)N(C)Cc1ccccc1`, the figure is 0.0708 µM [falling, full curve, poor fit]. With `O=C(O)CCc1nc(-c2ccccc2)c(-c2ccccc2)o1`, the AC50 under setting [2] is 316 nM [falling, full curve, poor fit] and 3.98 nM [rising, full curve, poor fit]; the AC50 under setting [1] is 0.355 µM [falling, single point]. For `O=C(CN(CCO)c1ccccc1)Nc1ccc(Cl)c(S(=O)(=O)N2CCOCC2)c1`, under setting [1], the AC50 was 10 µM [rising, partial curve]. For `COc1ccc(C)cc1NC(=O)c1nnn(Cc2cccc(F)c2)c1N`, the half-maximal activity concentration (AC50) by setting is: under setting [2], 0.112 µM [rising, partial curve]; under setting [1], 0.0178 µM [rising, full curve, poor fit].

As for `Cc1ccc(N(Cc2ccc([N+](=O)[O-])cc2)C(=O)c2ccco2)cc1C`, the AC50 runs as follows: under setting [2], 12.6 µM [rising, partial curve]; under setting [1], 12.6 µM [rising, partial curve].

In the case of `Oc1ccc(C=Nc2ccc3ncccc3c2)c(O)c1`, the AC50 reads like this: under setting [2], 35.5 µM [falling, single point]; under setting [1], 35.5 µM [falling, partial curve, poor fit]. Turning to `NC(=O)CSc1nc2cc([N+](=O)[O-])ccc2n1-c1cccc(C(F)(F)F)c1`, the AC50 under setting [1] is 2 µM [rising, single point].

As usually defined, the AC50 is the concentration at which the activity in the assay is half-maximal.
